In US10919937B2, “Bicyclic peptide ligands and uses thereof” (BicycleTx Limited, priority 2018, dated 2021):
At least one structure is not confirmed: it was looked up by name or label, or the drawing left a doubt. *1 amine or outer side, *2 acyl side, *3 side chain or, on linkers, in order; H or OH if unused. Where a SMILES comes first, the peptide text is derived from it. Bridges are numbered along the chain shown (N, C = ends). X1 = c1cc(-c2nc(-c3ccc(C[*:2])cc3)nc(-c3ccc(C[*:3])cc3)n2)ccc1C[*:1]; X8 = O=S(=O)(CC[*:1])N1CN(S(=O)(=O)CC[*:2])CN(S(=O)(=O)CC[*:3])C1; X2 = c1cc(C[*:1])ccc1CN(Cc1ccc(C[*:2])cc1)Cc1ccc(C[*:3])cc1

By UniProt entry, the sequences of proteins in these tests, tags left out. Residues count along the entry.
UniProt P29317, 24-976, species assumed: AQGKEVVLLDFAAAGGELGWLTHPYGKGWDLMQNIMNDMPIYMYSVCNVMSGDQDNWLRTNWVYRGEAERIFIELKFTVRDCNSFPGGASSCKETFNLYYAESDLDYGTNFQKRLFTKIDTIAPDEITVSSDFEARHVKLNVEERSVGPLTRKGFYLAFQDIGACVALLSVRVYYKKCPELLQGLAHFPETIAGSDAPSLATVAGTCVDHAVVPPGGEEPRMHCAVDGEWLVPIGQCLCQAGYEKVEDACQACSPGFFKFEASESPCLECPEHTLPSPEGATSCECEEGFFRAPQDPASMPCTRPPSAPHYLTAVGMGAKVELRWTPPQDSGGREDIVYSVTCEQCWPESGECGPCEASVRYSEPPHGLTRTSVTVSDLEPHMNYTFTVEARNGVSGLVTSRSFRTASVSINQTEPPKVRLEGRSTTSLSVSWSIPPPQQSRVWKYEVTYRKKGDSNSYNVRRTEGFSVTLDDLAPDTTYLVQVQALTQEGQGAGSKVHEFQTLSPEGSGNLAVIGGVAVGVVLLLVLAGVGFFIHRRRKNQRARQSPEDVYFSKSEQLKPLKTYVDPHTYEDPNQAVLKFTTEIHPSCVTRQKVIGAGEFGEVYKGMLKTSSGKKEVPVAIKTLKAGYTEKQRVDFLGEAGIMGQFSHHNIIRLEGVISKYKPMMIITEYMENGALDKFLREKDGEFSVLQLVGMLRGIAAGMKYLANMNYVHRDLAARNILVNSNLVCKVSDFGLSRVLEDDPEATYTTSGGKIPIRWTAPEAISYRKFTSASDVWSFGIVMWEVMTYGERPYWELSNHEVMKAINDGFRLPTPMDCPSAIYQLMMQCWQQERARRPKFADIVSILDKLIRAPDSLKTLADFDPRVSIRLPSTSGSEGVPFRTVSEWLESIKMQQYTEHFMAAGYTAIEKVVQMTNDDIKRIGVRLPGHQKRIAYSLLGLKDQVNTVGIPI

Target: T1, EphA2 (Homo sapiens, UniProt P29317)
T1 construct: purchased
Assay: EphA2 SPR Assay
Type: binding
Settings: n = 2
Method: SPR Measurements: Non-Fc fusion proteins were biotinylated with EZ-Link™ Sulfo-NHS-LC-Biotin for 1 hour in 4 mM sodium acetate, 100 mM NaCl, pH 5.4 with a 3× molar excess of biotin over protein. The degree of labelling was determined using a Fluorescence Biotin QuantificationKit (Thermo) after dialysis of the reaction mixture into PBS. For analysis of peptide binding, a Biacore T200 10 instrument was used utilising a XanTec CMD500D chip. Streptavidin was immobilized on the chip using standard amine-coupling chemistry at 25° C. with HBS—N (10 mM HEPES, 0.15 M NaCl, pH 7.4) as the running buffer. Briefly, the carboxymethyl dextran surface was activated with a 7 min injection of a 1:1 ratio of 0.4 M 1-ethyl-3-(3-dimethylaminopropyl) carbodiimide hydrochloride (EDC)/0.1 M N-hydroxy succinimide (NHS) at a flow rate of 10 μl/min. For capture of streptavidin, the protein was diluted to 0.2 mg/ml in 10 mM sodium acetate (pH 4.5) and captured by injecting 120 μl onto the activated chip surface. Residual activated groups were blocked with a 7 min injection of 1 M ethanolamine (pH 8.5):HBS—N (1:1). Buffer was changed to PBS/0.05% Tween 20 and biotinylated EphA2 was captured to a level of 500-1500 RU using a dilution of protein to 0.2 μM in buffer. A dilution series of the peptides was prepared in this buffer with a final DMSO concentration of 0.5% with a top peptide concentration was 50 or 100 nM and 6 further 2-fold dilutions. The SPR analysis was run at 25° C. at a flow rate of […] with 60 seconds association and 900-1200 seconds dissociation. Data were corrected for DMSO excluded volume effects. All data were double-referenced for blank injections and reference surface using standard processing procedures and data processing and kinetic fitting were performed using Scrubber software, version 2.0c (BioLogic Software).
Data were fitted using simple 1:1 binding model allowing for mass transport effects where appropriate for binding of Bicycle Drug Conjugates, a Biacore 3000 instrument was used. […]

Kd, < 500 nM:
CC(C)[C@H](NC(=O)[C@H](CC(=O)O)NC(=O)[C@H](C)N)C(=O)N[C@@H](Cc1c[nH]cn1)C(=O)N[C@H]1CSCc2ccc(cc2)-c2nc3nc(n2)-c2ccc(cc2)CSC[C@H](NC(=O)[C@H](Cc2c[nH]c4ccccc24)NC(=O)[C@H](Cc2ccccc2)NC(=O)[C@@H]2CCCN2C(=O)CNC(=O)[C@H](Cc2c[nH]c4ccccc24)NC(=O)[C@@H]2CCCN2C1=O)C(=O)N1CCC[C@H]1C(=O)N[C@@H](C(C)C)C(=O)N[C@@H](CC(N)=O)C(=O)N[C@@H](CCCNC(=N)N)C(=O)N1CCC[C@H]1C(=O)NCC(=O)N[C@H](C(=O)N[C@@H](C)C(=O)O)CSCc1ccc-3cc1 [I-100] (H-ADVHCPWGPFWCPVNRPGCA-OH; linker 5-12-19 via X1)
CC(C)[C@H](NC(=O)[C@H](CC(=O)O)NC(=O)[C@H](C)N)C(=O)N[C@@H](Cc1c[nH]cn1)C(=O)N[C@H]1CSCCS(=O)(=O)N2CN3CN(C2)S(=O)(=O)CCSC[C@H](NC(=O)[C@H](Cc2c[nH]c4ccccc24)NC(=O)[C@H](Cc2ccccc2)NC(=O)[C@@H]2CCCN2C(=O)CNC(=O)[C@H](Cc2c[nH]c4ccccc24)NC(=O)[C@@H]2CCCN2C1=O)C(=O)N1CCC[C@H]1C(=O)N[C@@H](C(C)C)C(=O)N[C@@H](CC(N)=O)C(=O)N[C@@H](CCCNC(=N)N)C(=O)N1CCC[C@H]1C(=O)NCC(=O)N[C@H](C(=O)N[C@@H](C)C(=O)O)CSCCS3(=O)=O [I-105] (H-ADVHCPWGPFWCPVNRPGCA-OH; linker 5-12-19 via X8)
CC(C)[C@H](NC(=O)[C@H](CC(=O)O)NC(=O)[C@H](C)N)C(=O)N[C@@H](Cc1c[nH]cn1)C(=O)N[C@H]1CSCc2ccc(cc2)CN2Cc3ccc(cc3)CSC[C@@H](C(=O)N[C@@H](C)C(=O)O)NC(=O)CNC(=O)[C@@H]3CCCN3C(=O)[C@H](CCCNC(=N)N)NC(=O)[C@H](CC(N)=O)NC(=O)[C@H](C(C)C)NC(=O)[C@@H]3CCCN3C(=O)[C@H](CSCc3ccc(cc3)C2)NC(=O)[C@H](Cc2c[nH]c3ccccc23)NC(=O)[C@H](Cc2ccccc2)NC(=O)[C@@H]2CCCN2C(=O)CNC(=O)[C@H](Cc2c[nH]c3ccccc23)NC(=O)[C@@H]2CCCN2C1=O [I-106] (H-ADVHCPWGPFWCPVNRPGCA-OH; linker 5-12-19 via X2)
